Data published in paper PMC5346709.
No constants are given. Whether binding was seen depends on the method and setting. Binding seen in cells or lysates may run through a third protein. Some results given as binding are weak or reduced against the parent protein; the word gives no strength. Where a sequence is shown, tags or fusion partners need not be part of it.

By UniProt entry, the sequences of proteins in these tests, tags left out.
UniProt Q15059: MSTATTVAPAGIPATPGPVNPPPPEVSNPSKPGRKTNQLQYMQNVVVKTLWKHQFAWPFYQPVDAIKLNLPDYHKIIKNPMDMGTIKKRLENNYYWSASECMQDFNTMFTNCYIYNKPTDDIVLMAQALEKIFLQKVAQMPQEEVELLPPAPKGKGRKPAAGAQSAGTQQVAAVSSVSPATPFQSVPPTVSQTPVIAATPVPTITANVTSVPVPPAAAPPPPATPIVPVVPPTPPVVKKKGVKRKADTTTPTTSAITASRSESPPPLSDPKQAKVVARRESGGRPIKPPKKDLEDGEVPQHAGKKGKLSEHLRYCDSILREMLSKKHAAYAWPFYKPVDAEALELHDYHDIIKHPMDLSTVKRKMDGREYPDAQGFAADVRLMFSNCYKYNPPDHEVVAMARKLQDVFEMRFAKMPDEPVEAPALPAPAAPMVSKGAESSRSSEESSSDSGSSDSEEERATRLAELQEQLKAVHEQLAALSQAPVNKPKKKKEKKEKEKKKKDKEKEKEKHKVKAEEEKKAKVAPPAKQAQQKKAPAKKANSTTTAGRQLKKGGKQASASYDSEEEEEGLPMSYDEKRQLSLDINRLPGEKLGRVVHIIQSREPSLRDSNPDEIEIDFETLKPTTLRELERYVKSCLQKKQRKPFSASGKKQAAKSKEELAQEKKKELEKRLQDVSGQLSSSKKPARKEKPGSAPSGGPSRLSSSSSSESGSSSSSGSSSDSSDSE

Biological target: BRD3 (pJTI-R4-DEST-CMV-N-EmGFP BRD3 construct) (UniProt Q15059)
Assay: co-IP; HEK293 cells co-transfected with FLAG-Nrf2 and BRD3, BRD4 or empty vector for 48 hours; 1500 ug of lysate protein immunoprecipitated with 5 ug anti-BRD3 or anti-BRD4 antibody (or control IgG) overnight at 4°C, captured on Protein G-Sepharose; immunoblot with anti-BRD3, anti-BRD4 and …

- binding: binds
B1: Nrf2 (pcDNA3.1-FLAG Nrf2 construct) (protein, UniProt Q16236 1-605)
chain: MMDLELPPPGLPSQQDMDLIDILWRQDIDLGVSREVFDFSQRRKEYELEKQKKLEKERQEQLQKEQEKAFFAQLQLDEETGEFLPIQPAQHIQSETSGSANYSQVAHIPKSDALYFDDCMQLLAQTFPFVDDNEVSSATFQSLVPDIPGHIESPVFIATNQAQSPETSVAQVAPVDLDGMQQDIEQVWEELLSIPELQCLNIENDKLVETTMVPSPEAKLTEVDNYHFYSSIPSMEKEVGNCSPHFLNAFEDSFSSILSTEDPNQLTVNSLNSDATVNTDFGDEFYSAFIAEPSISNSMPSPATLSHSLSELLNGPIDVSDLSLCKAFNQNHPESTAEFNDSDSGISLNTSPSVASPEHSVESSSYGDTLLGLSDSEVEELDSAPGSVKQNGPKTPVHSSGDMVQPLSPSQGQSTHVHDAQCENTPEKELPVSPGHRKTPFTKDKHSSRLEAHLTRDELRAKALHIPFPVEKIINLPVVDFNEMMSKEQFNEAQLALIRDIRRRGKNKVAAQNCRKRKLENIVELEQDLDHLKDEKEKLLKEKGENDKSLHLLKKQLSTLYLEVFSMLRDEDGKPYSPSEYSLQQTRDGNVFLVPKSKKPDVKKN
